# Test results as given in PubChem BioAssay AID493014 (National Center for Advancing Translational Sciences (NCATS), 2011).
# “And” between values parts separate entries of the source, which are not always exact repeats. Equal entries are not always repeated. This is one part of the list. Shown are side measurements of this screen, not its main read-out; they come without a call. The list favours compounds with an active or inconclusive main result. Words in brackets tell the shape of the fitted curve; partial curves, single points and poor fits give uncertain potencies.
# Assay: qHTS Assay to Find Inhibitors of Chronic Active B-Cell Receptor Signaling
# Conditions: ABC-DLBCL IkBa-CBG/CBR reporter, luminescence ratio (green luciferase fused to IkBa over red control in TMD8 lymphoma cells), 4 h
# Summary of the method: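 Doxycycline induced both beetle luciferases in TMD8 lymphoma cells; IKK-driven degradation limits the IkappaBalpha-fused green signal, while red luminescence normalises for cell number and nonspecific effects. Compounds tested up to 46 uM, 4 hrs.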
# [1] = measured here: CBR red luminescence, cell number
# [2] = measured here: IkBa-CBG green luminescence
SMILES,AC50 [1],AC50 [2]
O=C1c2ccccc2C(=O)N1CCc1ccccn1,"7.31 µM [falling, single point]",
CS(=O)(=O)Nc1ccc(S(=O)(=O)Nc2nccs2)cc1,"9.2 µM [rising, partial curve]",
CCOc1ccc(-n2c(=O)c3sccc3n(CC(=O)NCC3CCCO3)c2=O)cc1 (centres undefined),"3.98 µM [falling, partial curve, poor fit]",
COc1ccc(C(C)(C)C)cc1NC(=O)Nc1ccc2c(c1)OCO2,"10.3 µM [falling, partial curve, poor fit]",
Cc1ccc(C2C3=C(NCCN=C3c3ccccc3)C(=O)N2c2ccccc2)cc1 (centres undefined),"8.2 µM [falling, single point]",
CCOc1ccc(CCNC(=O)c2cccc(N3CCCC3=O)c2)cc1OCC,"2.59 µM [rising, partial curve, poor fit]",
O=C(Cn1nc(-c2ccccc2)c2ccccc2c1=O)NCCO,"35.5 µM [rising, single point]",
CCc1cc(-c2n[nH]c(=S)n2CC)cs1,"29.1 µM [rising, partial curve, poor fit]",
COc1ccc(CCN(C)CCC(=O)Nc2cccc(C)c2)cc1OC,"0.631 µM [falling, full curve, poor fit]",
COc1ccc(OC)c(NC(=S)Nc2ccccc2)c1,"8.91 µM [rising, partial curve]",
COc1ccccc1NS(=O)(=O)c1cccs1,"29.1 µM [falling, single point]",
CCN(CC)CCCN(Cc1cc2cc3c(cc2[nH]c1=O)OCO3)C(=S)NCCCN(C)C,"35.5 µM [falling, single point]",
O=C(O)c1ccc(-n2nc(C(F)(F)F)c3c2-c2ccoc2CC3)cc1,"2.06 µM [rising, partial curve, poor fit]",
Cc1ccc(N=C2NC(=O)CS2)cc1C,"10 µM [rising, partial curve]",
CCCCN(C(=S)NC(=O)c1cc(OC)c(OC)c(OC)c1)c1c(N)n(Cc2ccccc2)c(=O)[nH]c1=O,"29.1 µM [rising, partial curve, poor fit]",
Cc1nn(C)c(C(=O)Nc2ccc(S(=O)(=O)NC34CC5CC(CC(C5)C3)C4)cc2)c1Br,"7.31 µM [falling, partial curve]","23.1 µM [rising, single point]"
COC(=O)Nc1sc2c(c1C(=O)NCc1ccco1)CCC2,"1.16 µM [falling, full curve]",
O=C(OCc1nnc(-c2ccccc2)o1)C1=COCCO1,"1.46 µM [rising, full curve, poor fit]",
Cc1cc(C)c(C)c(S(=O)(=O)N2CCN(C(=O)c3ccc4c(=O)n5c(nc4c3)CCC5)CC2)c1C,"4.61 µM [rising, single point]",
COc1ccc(NC(=O)C23CC4CC(C2)CC(n2cnc(Br)n2)(C4)C3)c(OC)c1,"1.16 µM [falling, full curve]",
CS(=O)(=O)c1ccc(N2CCN(S(=O)(=O)c3cccs3)CC2)c([N+](=O)[O-])c1,"29.1 µM [rising, single point]",

# Taken from above:
# AC50 [2], `Cc1nn(C)c(C(=O)Nc2ccc(S(=O)(=O)NC34CC5CC(CC(C5)C3)C4)cc2)c1Br` reads 23.1 µM [rising, single point]
# AC50 [1], `CCN(CC)CCCN(Cc1cc2cc3c(cc2[nH]c1=O)OCO3)C(=S)NCCCN(C)C` reads 35.5 µM [falling, single point]
# AC50 [1], `O=C(OCc1nnc(-c2ccccc2)o1)C1=COCCO1` reads 1.46 µM [rising, full curve, poor fit]
# AC50 [1], `CCOc1ccc(CCNC(=O)c2cccc(N3CCCC3=O)c2)cc1OCC` reads 2.59 µM [rising, partial curve, poor fit]

# (continued)

SMILES,AC50 [1],AC50 [2]
Fc1ccccc1OCCSc1ncnc2nc[nH]c12,"35.5 µM [falling, single point]",
CCOc1ccc2nc(Nc3nc4ccc(NC(C)=O)cc4s3)sc2c1,,"18.4 µM [falling, single point]"
O=C(NCCO)/C(=C/c1cccc([N+](=O)[O-])c1)NC(=O)c1ccco1,"35.5 µM [rising, single point]",
CCOc1ccc(CC(=O)Nc2cccc(-c3ccc4nnc(C)n4n3)c2)cc1,"0.631 µM [rising, full curve, poor fit]",
O=C(Nc1ccc(F)cc1)Nc1ccc2ccccc2n1,"0.112 µM [rising, full curve, poor fit]",
CCc1oc2ccccc2c1C(=O)c1cc(Br)c(O)c(Br)c1,"10 µM [falling, partial curve] and 29.1 µM [falling, single point]","12.6 µM [rising, partial curve, poor fit]"
NC(=O)c1ccc(NC(=O)C#Cc2ccccc2)cc1,"15.8 µM [falling, single point]","25.1 µM [falling, single point]"
O=C(N/N=C/c1ccc(COc2ccc(Br)cc2)o1)c1ccco1,"1.3 µM [rising, full curve]","29.1 µM [falling, partial curve, poor fit]"
COc1ccc(/C=C/C(=O)c2ccccc2O)cc1CN1CCOCC1,"6.51 µM [falling, single point]",
O=S(=O)(CC(CN1CCCCC1)N1CCCCC1)c1ccc2ccccc2c1 (centres undefined),"2.82 µM [falling, full curve]",
CS(=O)(=O)N(CC(N)=O)c1ccc2c(c1)OCO2,"23.1 µM [rising, partial curve, poor fit]",
COc1cc(NC(=O)COC(=O)CNC(=O)c2ccc(Cl)cc2)c(C)cc1[N+](=O)[O-],"29.1 µM [rising, single point]",
O=C(O)c1ccccc1-n1cnnn1,"4.47 µM [falling, single point]",
O=C(Nc1cccc(Br)c1)c1cc(S(=O)(=O)N2CCCCC2)c[nH]1,"0.1 µM [rising, full curve, poor fit]",
CSc1nnc(-c2ccc(F)cc2)o1,"7.08 µM [rising, partial curve, poor fit]",
CC/C(=C(\c1ccccc1)c1ccc(OCCN(C)C)cc1)c1ccccc1,"20.6 µM [falling, partial curve]","18.4 µM [rising, partial curve, poor fit]"
CN(CC(=O)OCC(=O)NC1CCCC1)S(=O)(=O)c1ccc(Cl)cc1,"29.1 µM [rising, single point]",
COc1ccc(NS(=O)(=O)c2cccc(C(=O)NCC(c3cccs3)N3CCOCC3)c2)cc1 (centres undefined),"0.103 µM [rising, full curve, poor fit]",
O=C1CCC(C(=O)N2CCCC(C(=O)c3ccc4c5c(cccc35)CC4)C2)=NN1 (centres undefined),"8.91 µM [falling, partial curve, poor fit]",
COc1ccc(OC)c(NC(=O)CSc2nnnn2-c2ccc3c(c2)OCO3)c1,"18.4 µM [rising, partial curve]","32.6 µM [falling, partial curve, poor fit]"
CN(C(=O)CSc1nnc(-c2cccnc2)n1-c1ccccc1F)C1CCS(=O)(=O)C1 (centres undefined),"35.5 µM [rising, single point]",

SMILES,AC50 [1],AC50 [2]
COCCNC(=S)N/N=C(\C)CCc1ccc2c(c1)OCO2,,"22.4 µM [falling, single point]"
Cc1cccc(C(=O)Nc2ccc(CC(=O)O)cc2)c1,"23.1 µM [rising, single point]",
CC(=O)Nc1nc(COc2ccccc2)cs1,"20.6 µM [falling, partial curve, poor fit]",
O=S(=O)(CC12C3C4C5C1C2C(Br)(C43)C51OCCO1)c1ccccc1 (centres undefined),"3.26 µM [rising, full curve, poor fit]",
O=C1c2ccccc2NC2(CCCC2)N1N=C1CCCC1,"22.4 µM [falling, partial curve]",
COc1ccc(C(C)=O)cc1CSc1nnc(Nc2ccccc2)s1,"29.1 µM [falling, single point]",
Cc1ccc(C(=O)Nc2nccs2)s1,"2.24 µM [falling, full curve, poor fit]","14.1 µM [rising, partial curve, poor fit]"
COC(C(=O)Nc1ccc(S(=O)(=O)Nc2ccc(F)cc2)cc1)c1ccccc1 (centres undefined),"29.1 µM [falling, partial curve, poor fit]",
COCCn1cc(C(=O)NCCCN2CCC(C)CC2)c2c3ccccc3n(C)c2c1=O,"13 µM [rising, partial curve, poor fit]",
Cc1ccccc1C(=O)Nc1ccc2c(c1)OCCO2,"7.94 µM [falling, partial curve, poor fit]",
CNS(=O)(=O)c1cccc(C(=O)OCC(=O)NCc2ccccc2)c1,"14.6 µM [rising, single point]",
CCOC(=O)c1c(NC(=O)c2ccc(S(=O)(=O)N3CCCC(C)C3)cc2)sc2c1CC(C)(C)NC2(C)C (centres undefined),"25.1 µM [falling, single point]",
O=C(Oc1ccccc1)c1ccc(COC(=O)c2cnccn2)cc1,"25.9 µM [rising, single point]",
COc1ccc(OC)c(N/C=C/C(=C(C#N)C#N)N(C)C)c1,"35.5 µM [falling, single point]",
CCCCC(=O)Nc1ccc(NC(=S)NC(=O)CCCCl)cc1OC,"9.2 µM [falling, partial curve]",
Cc1nc2c(=O)n(C)c(=O)n(C)c2nc1Cl,"6.51 µM [falling, partial curve]","32.6 µM [rising, partial curve, poor fit]"
O=C(OCC(=O)N1CCN(c2ccc(F)cc2)CC1)c1cnc2ccccc2n1,"13 µM [rising, partial curve, poor fit]",
CN(C)C(CNC(=O)c1cc(S(=O)(=O)N(C)c2ccccc2)ccc1Cl)c1cccs1 (centres undefined),"35.5 µM [falling, single point]",
O=C(NC1CC(=O)N(c2ccc(F)cc2)C1)c1ccc(S(=O)(=O)N2CCOCC2)cc1 (centres undefined),"22.4 µM [rising, single point]",
